Results are given in words; binding and its absence hold for the method and conditions named. For part of these data: Binding seen in cells or lysates may run through a third protein. Some binding calls cover weakened binding; strength is not graded here. For part of these data: Where a sequence is shown, tags or fusion partners need not be part of it. Values belong to the binder of their own block, whether it stands above or below them.
What was measured:
[1] = biological target: GST-p44 fusion protein (human) (UniProt Q9BQA1); test: pull-down; GST or GST-p44 (1 μg) immobilized on glutathione-agarose beads, incubated with 5 µl reticulocyte lysate with 35S-labeled protein; 20 mM HEPES pH 7.9, 0.2 mM EDTA, 20% glycerol, 2 mM DTT, 150 or 300 mM KCl, 0.1% NP-40; 2 h at 4 C; autoradiography; only the target purified
[2] = biological target: p44/WDR77 CytoTrap bait (pSos-p44) (human) (UniProt Q9BQA1); test: two-hybrid; CytoTrap (Sos recruitment) screen in S. cerevisiae cdc25H; bait pSos-p44, prey human prostate cDNA library fused to the v-Src myristylation sequence; growth on galactose at 37°C
[3] = biological target: p44/WDR77, endogenous in LNCaP cells (human (endogenous in LNCaP)) (UniProt Q9BQA1); test: co-IP; whole-cell extracts of LNCaP cells transfected with pcDNA-f:PKG-Iβ; anti-p44 antibody on Protein A Sepharose or anti-FLAG M2 agarose; washes with 100 mM KCl, 0.1% NP-40; Western blot with anti-PKG or anti-p44

Chains of the proteins cited; added tags and fusions are not shown. Lines headed by an entry give the natural chain unless they say otherwise; changes in a name come on top. Residues count along the entry.
UniProt Q9BQA1: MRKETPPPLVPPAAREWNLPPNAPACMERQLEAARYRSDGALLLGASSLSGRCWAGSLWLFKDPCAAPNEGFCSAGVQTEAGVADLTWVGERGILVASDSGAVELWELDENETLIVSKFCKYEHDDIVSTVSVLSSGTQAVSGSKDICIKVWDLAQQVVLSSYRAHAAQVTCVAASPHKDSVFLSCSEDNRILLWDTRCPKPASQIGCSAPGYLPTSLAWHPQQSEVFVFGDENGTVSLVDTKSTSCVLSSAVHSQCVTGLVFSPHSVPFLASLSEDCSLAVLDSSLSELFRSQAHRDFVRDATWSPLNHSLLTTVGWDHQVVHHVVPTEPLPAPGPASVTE
p44/WDR77 CytoTrap bait (pSos-p44): residues 2-342 of Q9BQA1

B1: 35S-labeled PKG-Iβ ATP-binding domain (ATP; amino acid residues 355-491) (domain or fragment, UniProt Q13976-2 355-491)
chain: EAKAKYEAEAAFFANLKLSDFNIIDTLGVGGFGRVELVQLKSEESKTFAMKILKKRHIVDTRQQEHIRSEKQIMQGAHSDFIVRLYRTFKDSKYLYMLMEACLGGELWTILRDRGSFEDSTTRFYTACVVEAFAYLH
modifications: 35S-labeled
binding [1]: binds

B2: 35S-labeled PKG-II kinase domain (amino acid residues 415-762) (domain or fragment, UniProt Q13237 415-762)
chain: RHAKRSMSNWKLSKALSLEMIQLKEKVARFSSSSPFQNLEIIATLGVGGFGRVELVKVKNENVAFAMKCIRKKHIVDTKQQEHVYSEKRILEELCSPFIVKLYRTFKDNKYVYMLLEACLGGELWSILRDRGSFDEPTSKFCVACVTEAFDYLHRLGIIYRDLKPENLILDAEGYLKLVDFGFAKKIGSGQKTWTFCGTPEYVAPEVILNKGHDFSVDFWSLGILVYELLTGNPPFSGVDQMMTYNLILKGIEKMDFPRKITRRPEDLIRRLCRQNPTERLGNLKNGINDIKKHRWLNGFNWEGLKARSLPSPLQRELKGPIDHSYFDKYPPEKGMPPDELSGWDKDF
modifications: 35S-labeled
binding [1]: binds

B4: 35S-labeled PKG-Iβ catalytic domain (CD; amino acid residues 491-686) (domain or fragment, UniProt Q13976-2 491-686)
chain: HSKGIIYRDLKPENLILDHRGYAKLVDFGFAKKIGFGKKTWTFCGTPEYVAPEIILNKGHDISADYWSLGILMYELLTGSPPFSGPDPMKTYNIILRGIDMIEFPKKIAKNAANLIKKLCRDNPSERLGNLKNGVKDIQKHKWFEGFNWEGLRKGTLTPPIIPSVASPTDTSNFDSFPEDNDEPPPDDNSGWDIDF
modifications: 35S-labeled
binding [1]: binds

B6: 35S-labeled PKG-Iβ N-terminal domain (NTD; amino acid residues 1-355) (domain or fragment, UniProt Q13976-2 1-355)
chain: MGTLRDLQYALQEKIEELRQRDALIDELELELDQKDELIQKLQNELDKYRSVIRPATQQAQKQSASTLQGEPRTKRQAISAEPTAFDIQDLSHVTLPFYPKSPQSKDLIKEAILDNDFMKNLELSQIQEIVDCMYPVEYGKDSCIIKEGDVGSLVYVMEDGKVEVTKEGVKLCTMGPGKVFGELAILYNCTRTATVKTLVNVKLWAIDRQCFQTIMMRTGLIKHTEYMEFLKSVPTFQSLPEEILSKLADVLEETHYENGEYIIRQGARGDTFFIISKGTVNVTREDSPSEDPVFLRTLGKGDWFGEKALQGEDVRTANVIAAEAVTCLVIDRDSFKHLIGGLDDVSNKAYEDAE
modifications: 35S-labeled
binding [1]: no binding

B7: 35S-labeled full-length PKG-Iβ (FL; amino acid residues 1-686) (enzyme, UniProt Q13976-2 1-686)
chain: MGTLRDLQYALQEKIEELRQRDALIDELELELDQKDELIQKLQNELDKYRSVIRPATQQAQKQSASTLQGEPRTKRQAISAEPTAFDIQDLSHVTLPFYPKSPQSKDLIKEAILDNDFMKNLELSQIQEIVDCMYPVEYGKDSCIIKEGDVGSLVYVMEDGKVEVTKEGVKLCTMGPGKVFGELAILYNCTRTATVKTLVNVKLWAIDRQCFQTIMMRTGLIKHTEYMEFLKSVPTFQSLPEEILSKLADVLEETHYENGEYIIRQGARGDTFFIISKGTVNVTREDSPSEDPVFLRTLGKGDWFGEKALQGEDVRTANVIAAEAVTCLVIDRDSFKHLIGGLDDVSNKAYEDAEAKAKYEAEAAFFANLKLSDFNIIDTLGVGGFGRVELVQLKSEESKTFAMKILKKRHIVDTRQQEHIRSEKQIMQGAHSDFIVRLYRTFKDSKYLYMLMEACLGGELWTILRDRGSFEDSTTRFYTACVVEAFAYLHSKGIIYRDLKPENLILDHRGYAKLVDFGFAKKIGFGKKTWTFCGTPEYVAPEIILNKGHDISADYWSLGILMYELLTGSPPFSGPDPMKTYNIILRGIDMIEFPKKIAKNAANLIKKLCRDNPSERLGNLKNGVKDIQKHKWFEGFNWEGLRKGTLTPPIIPSVASPTDTSNFDSFPEDNDEPPPDDNSGWDIDF
modifications: 35S-labeled
binding [1]: binds weakly

B9: 35S-labeled PKG-Iβ kinase domain (KD; amino acid residues 355-686) (domain or fragment, UniProt Q13976-2 355-686)
chain: EAKAKYEAEAAFFANLKLSDFNIIDTLGVGGFGRVELVQLKSEESKTFAMKILKKRHIVDTRQQEHIRSEKQIMQGAHSDFIVRLYRTFKDSKYLYMLMEACLGGELWTILRDRGSFEDSTTRFYTACVVEAFAYLHSKGIIYRDLKPENLILDHRGYAKLVDFGFAKKIGFGKKTWTFCGTPEYVAPEIILNKGHDISADYWSLGILMYELLTGSPPFSGPDPMKTYNIILRGIDMIEFPKKIAKNAANLIKKLCRDNPSERLGNLKNGVKDIQKHKWFEGFNWEGLRKGTLTPPIIPSVASPTDTSNFDSFPEDNDEPPPDDNSGWDIDF
modifications: 35S-labeled
binding [1]: binds

Further lines, results first:

binding [2]: binds
B3: PKG-II two-hybrid clone 413-762 (domain or fragment, UniProt Q13237 413-762)
chain: EKRHAKRSMSNWKLSKALSLEMIQLKEKVARFSSSSPFQNLEIIATLGVGGFGRVELVKVKNENVAFAMKCIRKKHIVDTKQQEHVYSEKRILEELCSPFIVKLYRTFKDNKYVYMLLEACLGGELWSILRDRGSFDEPTSKFCVACVTEAFDYLHRLGIIYRDLKPENLILDAEGYLKLVDFGFAKKIGSGQKTWTFCGTPEYVAPEVILNKGHDFSVDFWSLGILVYELLTGNPPFSGVDQMMTYNLILKGIEKMDFPRKITRRPEDLIRRLCRQNPTERLGNLKNGINDIKKHRWLNGFNWEGLKARSLPSPLQRELKGPIDHSYFDKYPPEKGMPPDELSGWDKDF

binding [2]: binds
B5: PKG-II two-hybrid clone 417-762 (domain or fragment, UniProt Q13237 417-762)
chain: AKRSMSNWKLSKALSLEMIQLKEKVARFSSSSPFQNLEIIATLGVGGFGRVELVKVKNENVAFAMKCIRKKHIVDTKQQEHVYSEKRILEELCSPFIVKLYRTFKDNKYVYMLLEACLGGELWSILRDRGSFDEPTSKFCVACVTEAFDYLHRLGIIYRDLKPENLILDAEGYLKLVDFGFAKKIGSGQKTWTFCGTPEYVAPEVILNKGHDFSVDFWSLGILVYELLTGNPPFSGVDQMMTYNLILKGIEKMDFPRKITRRPEDLIRRLCRQNPTERLGNLKNGINDIKKHRWLNGFNWEGLKARSLPSPLQRELKGPIDHSYFDKYPPEKGMPPDELSGWDKDF

binding [3]: binds weakly
B8: FLAG-tagged PKG-Iβ (pcDNA-f:PKG-Iβ) (enzyme, UniProt Q13976-2 1-686)
chain: B7 chain

Source: article PMC3670919
